The text below walks through data of the supplement of paper PMC4604168 (melanoma cell lines).

Structures are written as SMILES. Some of the results follow. Single values are uncertain, as repeats are few or missing.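 The apoptosis fraction was the count of cleaved-PARP antibody-stained nuclei relative to all DNA-stained nuclei, imaged in 1,536-well plates. Screening doses were set so most cells survived, and baseline and induced cleaved-PARP levels vary greatly across cell lines.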

The experiment deals with SkMel28. In words: cleaved PARP positive nuclei fraction relative to DMSO control; melanoma cells; higher = more apoptosis. Conditions: library dose: low library concentration; 72 h.
On to `Cn1cc(C2=C(c3cn(C4CCN(Cc5ccccn5)CC4)c4ccccc34)C(=O)NC2=O)c2ccccc21` [Enzastaurin] + OCCn1cc(-c2cnc3nnn(Cc4ccc5ncccc5c4)c3n2)cn1 [PF04217903] (first compound 0.8 µM, partner dose 1 µM), for which the “cleaved PARP positive nuclei fraction” value was determined as 115%.
For `N.N.[Cl][Pt][Cl]` [cisplatin] + CN(NC(=O)CC(=O)NN(C)C(=S)c1ccccc1)C(=S)c1ccccc1 [STA4783] (first compound 1.6 µM, partner dose 0.006 µM), the “cleaved PARP positive nuclei fraction” value was found to be 119%.
On to `C=C(c1ccc(C(=O)O)cc1)c1cc2c(cc1C)C(C)(C)CCC2(C)C` [Bexarotene] + O=C(Oc1ccc([N+](=O)[O-])cc1)N1CCC(C(O)(c2ccc3c(c2)OCO3)c2ccc3c(c2)OCO3)CC1 [JZL184] (first compound 2 µM, partner dose 1 µM), for which the “cleaved PARP positive nuclei fraction” value was 233%.
Under `Cn1sc(=O)n(Cc2ccccc2)c1=O` + O=C(Oc1ccc([N+](=O)[O-])cc1)N1CCC(C(O)(c2ccc3c(c2)OCO3)c2ccc3c(c2)OCO3)CC1 [JZL184] (first compound 0.4 µM, partner dose 1 µM) stands 90.8%.
On to `C[As](C)SC[C@H](NC(=O)CC[C@H](N)C(=O)O)C(=O)NCC(=O)O` [Darinaparsin] + COc1cc(Nc2ncc(F)c(Nc3ccc4c(n3)NC(=O)C(C)(C)O4)n2)cc(OC)c1OC [Tamatinib] (first compound 0.4 µM, partner dose 0.4 µM), for which the “cleaved PARP positive nuclei fraction” value was 237%.
With `CNC(=O)c1cc(Oc2ccc(NC(=O)Nc3ccc(Cl)c(C(F)(F)F)c3)cc2)ccn1` [sorafenib] + Cc1cc(SCc2sc(-c3ccc(C(F)(F)F)c(F)c3)nc2C)ccc1OCC(=O)O [GW0742] (first compound 0.4 µM, partner dose 2 µM), the “cleaved PARP positive nuclei fraction” value came to 164%.
As for `Cn1cc(C2=C(c3cn(C4CCN(Cc5ccccn5)CC4)c4ccccc34)C(=O)NC2=O)c2ccccc21` [Enzastaurin] + COC(=O)c1sccc1S(=O)(=O)Nc1ccc(Nc2ccccc2)cc1OC [GSK0660] (first compound 0.8 µM, partner dose 1 µM), the “cleaved PARP positive nuclei fraction” value was 244%.
Regarding `COc1cc([C@@H]2c3cc4c(cc3[C@@H](O[C@@H]3O[C@@H]5CO[C@@H](C)O[C@H]5[C@H](O)[C@H]3O)[C@H]3COC(=O)[C@H]23)OCO4)cc(OC)c1O` [etoposide] + C/C(O)=C(\C#N)C(=O)Nc1cc(Br)ccc1Br [LFM-A13] (first compound 0.02 µM, partner dose 2 µM), the “cleaved PARP positive nuclei fraction” value was determined as 239%.
Under `Cn1cnc2c(F)c(Nc3ccc(Br)cc3Cl)c(C(=O)NOCCO)cc21` [selumetinib] + O=C(Oc1ccc([N+](=O)[O-])cc1)N1CCC(C(O)(c2ccc3c(c2)OCO3)c2ccc3c(c2)OCO3)CC1 [JZL184] (first compound 0.015 µM, partner dose 1 µM) stands 126%; under `Nc1ncn([C@H]2C[C@H](O)[C@@H](CO)O2)c(=O)n1` [decitabine] + O=C(Oc1ccc([N+](=O)[O-])cc1)N1CCC(C(O)(c2ccc3c(c2)OCO3)c2ccc3c(c2)OCO3)CC1 [JZL184] (first compound 0.1 µM, partner dose 1 µM), 24.7%; under `C[As](C)SC[C@H](NC(=O)CC[C@H](N)C(=O)O)C(=O)NCC(=O)O` [Darinaparsin] + O=C(O)c1ccc(-c2c[nH]c3ncc(-c4ccccc4)cc23)cc1C1CCCC1 [GSK650394] (first compound 0.4 µM, partner dose 0.16 µM), 199%.
Turning to `O=C(Nc1cc(C(F)(F)F)cc(C(F)(F)F)c1)c1cc(Cl)ccc1O` + O=C(Oc1ccc([N+](=O)[O-])cc1)N1CCC(C(O)(c2ccc3c(c2)OCO3)c2ccc3c(c2)OCO3)CC1 [JZL184] (first compound 0.016 µM, partner dose 1 µM), the “cleaved PARP positive nuclei fraction” value worked out at 123%.
Under `Cn1cc(C2=C(c3cn(C4CCN(Cc5ccccn5)CC4)c4ccccc34)C(=O)NC2=O)c2ccccc21` [Enzastaurin] + O=C(Oc1ccc([N+](=O)[O-])cc1)N1CCC(C(O)(c2ccc3c(c2)OCO3)c2ccc3c(c2)OCO3)CC1 [JZL184] (first compound 0.8 µM, partner dose 1 µM) stands 158%; under `N.N.[Cl][Pt][Cl]` [cisplatin] + CO[C@@H]1[C@H](N(C)C(=O)c2ccccc2)C[C@H]2O[C@]1(C)n1c3ccccc3c3c4c(c5c6ccccc6n2c5c31)C(=O)NC4 [Midostaurin] (first compound 1.6 µM, partner dose 0.08 µM), 91.7%.
Under `CCN(CC)CCNC(=O)c1c(C)[nH]c(/C=C2\C(=O)Nc3ccc(F)cc32)c1C` [sunitinib] + O=C(Oc1ccc([N+](=O)[O-])cc1)N1CCC(C(O)(c2ccc3c(c2)OCO3)c2ccc3c(c2)OCO3)CC1 [JZL184] (first compound 0.4 µM, partner dose 1 µM) stands 117%; under `N.N.[Cl][Pt][Cl]` [cisplatin] + Oc1cc(-c2nc(-c3ccccc3)[nH]c2-c2ccncc2)ccc1Cl [L779450] (first compound 1.6 µM, partner dose 0.2 µM), 92.8%; under `Clc1ccc(Nc2nnc(Cc3ccncc3)c3ccccc23)cc1` [vatalanib] + O=C(Oc1ccc([N+](=O)[O-])cc1)N1CCC(C(O)(c2ccc3c(c2)OCO3)c2ccc3c(c2)OCO3)CC1 [JZL184] (first compound 2 µM, partner dose 1 µM), 107%.
On to `C[As](C)SC[C@H](NC(=O)CC[C@H](N)C(=O)O)C(=O)NCC(=O)O` [Darinaparsin] + OCCn1cc(-c2cnc3nnn(Cc4ccc5ncccc5c4)c3n2)cn1 [PF04217903] (first compound 0.4 µM, partner dose 1 µM), for which the “cleaved PARP positive nuclei fraction” value was 70.8%.
On to `C[C@@H](N)c1ccc(C(=O)Nc2ccnc3[nH]ccc23)cc1` + Cc1cc(SCc2sc(-c3ccc(C(F)(F)F)c(F)c3)nc2C)ccc1OCC(=O)O [GW0742] (first compound 0.4 µM, partner dose 2 µM), for which the “cleaved PARP positive nuclei fraction” value turned out to be 192%.
As to `N.N.[Cl][Pt][Cl]` [cisplatin] + Cn1cncc1[C@@](N)(c1ccc(Cl)cc1)c1ccc2c(c1)c(-c1cccc(Cl)c1)cc(=O)n2C [tipifarnib] (first compound 1.6 µM, partner dose 0.01 µM), the “cleaved PARP positive nuclei fraction” value came out at 54.9%.
